Data from paper PMC9985596.
Results are given in words; binding and its absence hold for the method and conditions named. In cells and extracts the contact can be indirect. Some binding calls cover weakened binding; strength is not graded here. For some of these results: Where a sequence is shown, tags or fusion partners need not be part of it.

Amino acid sequences for entries named in this document (tags omitted).
UniProt Q9H1A4: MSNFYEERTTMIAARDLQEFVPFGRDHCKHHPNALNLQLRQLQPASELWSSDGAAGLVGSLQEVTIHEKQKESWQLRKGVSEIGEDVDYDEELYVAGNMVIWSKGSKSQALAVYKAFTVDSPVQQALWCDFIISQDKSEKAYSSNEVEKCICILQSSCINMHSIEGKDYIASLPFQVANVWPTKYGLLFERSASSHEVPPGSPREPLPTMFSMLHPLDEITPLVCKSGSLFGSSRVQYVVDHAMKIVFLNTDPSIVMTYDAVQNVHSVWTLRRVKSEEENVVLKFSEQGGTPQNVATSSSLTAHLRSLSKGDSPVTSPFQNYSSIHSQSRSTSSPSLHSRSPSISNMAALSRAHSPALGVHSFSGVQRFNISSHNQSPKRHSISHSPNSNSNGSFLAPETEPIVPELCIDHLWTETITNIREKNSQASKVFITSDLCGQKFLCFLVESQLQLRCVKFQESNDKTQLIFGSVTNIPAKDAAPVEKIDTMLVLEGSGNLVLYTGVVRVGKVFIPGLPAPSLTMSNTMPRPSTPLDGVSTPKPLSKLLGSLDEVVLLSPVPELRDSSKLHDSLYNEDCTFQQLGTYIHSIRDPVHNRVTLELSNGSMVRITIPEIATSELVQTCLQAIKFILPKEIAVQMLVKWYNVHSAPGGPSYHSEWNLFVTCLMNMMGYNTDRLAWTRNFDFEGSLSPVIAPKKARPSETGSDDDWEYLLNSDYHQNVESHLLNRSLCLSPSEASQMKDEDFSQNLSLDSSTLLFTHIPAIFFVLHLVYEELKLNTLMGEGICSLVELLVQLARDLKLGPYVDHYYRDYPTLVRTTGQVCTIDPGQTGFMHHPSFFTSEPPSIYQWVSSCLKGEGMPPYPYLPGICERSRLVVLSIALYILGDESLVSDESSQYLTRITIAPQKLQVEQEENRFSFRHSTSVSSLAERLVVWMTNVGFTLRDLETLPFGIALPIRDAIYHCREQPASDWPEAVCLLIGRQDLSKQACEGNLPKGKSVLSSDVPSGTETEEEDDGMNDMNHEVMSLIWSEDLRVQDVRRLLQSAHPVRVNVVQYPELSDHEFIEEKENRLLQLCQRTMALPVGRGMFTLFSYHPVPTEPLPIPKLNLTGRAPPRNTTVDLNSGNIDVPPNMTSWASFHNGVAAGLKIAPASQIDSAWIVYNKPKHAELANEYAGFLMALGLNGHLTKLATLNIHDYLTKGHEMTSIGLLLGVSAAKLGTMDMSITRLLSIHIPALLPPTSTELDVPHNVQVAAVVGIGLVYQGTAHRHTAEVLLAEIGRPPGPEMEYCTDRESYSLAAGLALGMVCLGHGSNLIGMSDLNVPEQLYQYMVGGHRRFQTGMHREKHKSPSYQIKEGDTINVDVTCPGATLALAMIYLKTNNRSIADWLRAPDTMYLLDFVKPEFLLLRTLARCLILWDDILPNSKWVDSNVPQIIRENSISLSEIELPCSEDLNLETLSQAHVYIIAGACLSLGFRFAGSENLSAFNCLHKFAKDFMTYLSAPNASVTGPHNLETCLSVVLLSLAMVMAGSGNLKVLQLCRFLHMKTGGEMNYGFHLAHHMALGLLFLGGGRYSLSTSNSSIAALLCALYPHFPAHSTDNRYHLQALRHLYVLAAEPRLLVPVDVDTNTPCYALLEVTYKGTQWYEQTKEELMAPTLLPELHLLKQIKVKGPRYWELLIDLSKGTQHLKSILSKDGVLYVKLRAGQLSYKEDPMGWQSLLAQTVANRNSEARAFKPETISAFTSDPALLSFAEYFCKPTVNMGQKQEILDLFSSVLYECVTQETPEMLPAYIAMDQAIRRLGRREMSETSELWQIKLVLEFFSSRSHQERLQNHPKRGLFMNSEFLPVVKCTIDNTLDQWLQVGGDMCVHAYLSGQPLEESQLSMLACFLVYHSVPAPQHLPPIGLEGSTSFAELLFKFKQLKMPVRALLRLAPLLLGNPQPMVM
UniProt Q9UJX4: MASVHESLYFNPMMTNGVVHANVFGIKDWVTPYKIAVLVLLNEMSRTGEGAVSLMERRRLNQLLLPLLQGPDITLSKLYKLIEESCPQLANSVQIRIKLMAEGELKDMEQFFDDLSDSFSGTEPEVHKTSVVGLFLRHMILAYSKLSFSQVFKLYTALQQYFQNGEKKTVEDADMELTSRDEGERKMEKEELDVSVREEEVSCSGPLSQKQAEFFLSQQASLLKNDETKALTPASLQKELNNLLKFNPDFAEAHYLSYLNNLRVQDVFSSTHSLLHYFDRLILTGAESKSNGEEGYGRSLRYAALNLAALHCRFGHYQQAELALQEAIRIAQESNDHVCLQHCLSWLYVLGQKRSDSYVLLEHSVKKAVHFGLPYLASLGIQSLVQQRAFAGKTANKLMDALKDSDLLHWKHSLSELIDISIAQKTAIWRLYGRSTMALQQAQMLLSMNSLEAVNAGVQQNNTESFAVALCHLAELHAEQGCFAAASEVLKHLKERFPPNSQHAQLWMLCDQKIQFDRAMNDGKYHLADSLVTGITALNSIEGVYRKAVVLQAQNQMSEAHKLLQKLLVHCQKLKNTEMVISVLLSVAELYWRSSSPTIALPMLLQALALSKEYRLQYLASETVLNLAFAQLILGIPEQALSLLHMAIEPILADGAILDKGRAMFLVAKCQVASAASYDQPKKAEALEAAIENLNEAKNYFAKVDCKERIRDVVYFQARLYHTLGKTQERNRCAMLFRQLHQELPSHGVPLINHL

How the values were obtained:
[1] = target: T1, FLAG-RECQ4(1-240) (human) (UniProt O94761); assay: co-IP; FLAG-RECQ4 constructs transiently overexpressed in RECQ4 KD HEK293 cells, immunopurified on M2 agarose from CB fractions; western blot, prey normalised to the bait (Fig. 4a, c)
T1 sequence: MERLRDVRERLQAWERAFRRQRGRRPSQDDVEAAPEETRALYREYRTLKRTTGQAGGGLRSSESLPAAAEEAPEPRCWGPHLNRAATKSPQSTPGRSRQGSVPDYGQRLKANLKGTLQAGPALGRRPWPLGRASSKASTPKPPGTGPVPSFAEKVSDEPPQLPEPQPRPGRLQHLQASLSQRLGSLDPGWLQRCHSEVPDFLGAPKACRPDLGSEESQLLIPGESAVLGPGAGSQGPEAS

[2] = target: T2, endogenous RECQ4 (human (endogenous in HEK293)) (UniProt O94761); assay: co-IP; endogenous RECQ4 immunopurified with rabbit anti-RECQ4 antibody on protein A agarose from whole-cell extracts of parental HEK293 cells at time points after release from nocodazole; western blot (Fig. 3b)
T2 sequence: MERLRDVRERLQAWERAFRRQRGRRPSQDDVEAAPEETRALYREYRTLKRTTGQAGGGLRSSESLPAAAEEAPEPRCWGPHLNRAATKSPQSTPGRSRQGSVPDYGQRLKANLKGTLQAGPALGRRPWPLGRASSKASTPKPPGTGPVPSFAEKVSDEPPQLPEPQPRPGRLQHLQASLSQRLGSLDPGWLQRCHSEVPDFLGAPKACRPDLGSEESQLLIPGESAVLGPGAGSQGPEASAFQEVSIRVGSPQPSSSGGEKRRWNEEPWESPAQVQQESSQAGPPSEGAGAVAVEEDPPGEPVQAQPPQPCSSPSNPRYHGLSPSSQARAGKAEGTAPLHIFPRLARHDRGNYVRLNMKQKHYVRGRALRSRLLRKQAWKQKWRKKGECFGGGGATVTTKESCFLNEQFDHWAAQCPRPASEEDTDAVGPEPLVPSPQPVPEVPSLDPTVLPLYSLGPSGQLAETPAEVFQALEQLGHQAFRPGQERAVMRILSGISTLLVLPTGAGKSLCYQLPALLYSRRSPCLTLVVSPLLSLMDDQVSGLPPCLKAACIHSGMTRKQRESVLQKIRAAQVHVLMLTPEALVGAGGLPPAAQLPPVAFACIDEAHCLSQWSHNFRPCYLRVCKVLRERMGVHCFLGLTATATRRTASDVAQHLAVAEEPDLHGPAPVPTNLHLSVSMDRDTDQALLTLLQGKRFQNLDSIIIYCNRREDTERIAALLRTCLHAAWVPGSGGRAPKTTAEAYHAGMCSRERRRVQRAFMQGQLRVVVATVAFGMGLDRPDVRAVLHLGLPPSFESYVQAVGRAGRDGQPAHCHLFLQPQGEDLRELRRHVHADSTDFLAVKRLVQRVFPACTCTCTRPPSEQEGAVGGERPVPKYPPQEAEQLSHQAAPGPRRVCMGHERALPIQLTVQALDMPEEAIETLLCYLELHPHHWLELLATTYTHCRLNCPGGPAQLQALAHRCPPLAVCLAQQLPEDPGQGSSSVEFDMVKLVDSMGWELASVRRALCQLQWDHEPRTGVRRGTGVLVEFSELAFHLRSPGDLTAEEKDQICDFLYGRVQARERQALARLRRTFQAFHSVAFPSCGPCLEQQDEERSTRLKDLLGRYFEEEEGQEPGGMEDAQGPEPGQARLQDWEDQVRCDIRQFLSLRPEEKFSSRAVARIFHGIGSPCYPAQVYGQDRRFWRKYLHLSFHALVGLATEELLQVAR

[3] = target: T3, recombinant His-RECQ4(1-240)-FLAG (human) (UniProt O94761); assay: pull-down; purified recombinant His-RECQ4-FLAG fragments pre-bound to M2 agarose, incubated with the CB fraction of parental HEK293 cells for 4 h at 4 C; washed with FLAG-A-binding buffer; western blot, normalised to the bait (Fig. 4d, e); only the target purified
T3 sequence: T1 sequence

binding [1]	binding [2]	binding [3]	Substance
binds	binds	binds	APC1 (from UniProt Q9H1A4 1-1944)
binds	–	–	APC5 (from UniProt Q9UJX4 1-755)
